Screen size: about 360,000 compounds; about 7,500 (2.1%) were called active. Inconclusive means that the source gave no clear call. Such entries were picked first, then a sample of the others. Calls come from the whole dose curve; as a rule, active = well fitted inhibition curve with a large enough effect; inconclusive = small, poorly fitted or top-dose-only effect, or effect the other way; inactive = flat fitted curve, though single readings scatter. Where the call is inconclusive, the potency comes from a doubtful curve fit.
Test: Nrf2 qHTS screen for inhibitors; note: nearly all actives have a fitted effect of over 60% in size
Settings: A549 ARE-Fluc reporter, luciferase luminescence, 18-24 h; series mostly up to 46 µM
Summary of the method: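 A549 ARE_Fluc cells, 5000/well, 5% FBS OPTI-MEM; compounds in dose-response, 18-24 h at 37 °C/5% CO2; CellTiter-Fluor viability read (Ex 405/Em 525), then BugLite luciferase luminescence = Nrf2 activity.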
With OCCNc1nc(N2CCN(Cc3ccccc3)CC2)nc2ccccc12 the Potency was inconclusive: 3.66 µM [falling, full curve, poor fit]. For CCOC(=O)c1ccc2nc(NC(=O)C(C)C)sc2c1, the Potency was inconclusive: 2.06 µM [activator, full curve, poor fit]. For COc1cccc(NC(=O)c2ccc(S(=O)(=O)N3CCCC3)cc2)c1, the Potency was inconclusive: 29.1 µM [falling, single point]. In the case of Cc1ccccc1NS(=O)(=O)c1ccc(OCC(=O)N2CCCCC2)cc1, the Potency is reported as inconclusive: 20.6 µM [falling, single point]. In the case of COc1ccc(CNC(=O)N2CCN(c3cccc(Cl)c3)CC2)cc1OC, the Potency is reported as inconclusive: 29.1 µM [falling, single point]. For COC(=O)c1sccc1NC(=O)c1ccc(OC)cc1, the Potency was inconclusive: 2.06 µM [activator, partial curve]. With Cc1nc(-c2cccc(NC(=O)Cc3ccccc3)c2)cs1 the Potency was inconclusive: 18.4 µM [activator, single point]. With COC(=O)[C@]1(Cc2ccccc2)N[C@H](c2ccc(-c3cccc(Cl)c3)cc2)[C@@H]2C(=O)N(C)C(=O)[C@@H]21 the Potency was inconclusive: 9.2 µM [falling, partial curve, poor fit]. In the case of COc1cccc(NC(=O)Nc2nnc(Cc3ccccc3F)s2)c1, the Potency is reported as inconclusive: 23.1 µM [falling, partial curve]. With COC(=O)c1sccc1NC(=S)N1CCN(c2ccccc2)CC1 the Potency was inconclusive: 29.1 µM [falling, partial curve, poor fit]. With Cc1ccc(S(=O)(=O)N2CCCCC2)cc1C(=O)NCCc1ccccc1 the Potency was inconclusive: 13 µM [falling, partial curve, poor fit]. With Cc1cccc(C)c1NC(=O)c1csc2c1CCCC2 the Potency was inconclusive: 11.6 µM [falling, partial curve]. With COc1ccccc1NC(=O)C(=O)c1cc(C)n(-c2ccccc2F)c1C the Potency was “inactive”. For O=c1c2c(nc3cc(-c4cccc(F)c4)[nH]n13)CCC2, the Potency was inconclusive: 14.6 µM [activator, single point]. In the case of CN(C)c1ccc(N=C/C=C2\N(C)c3ccccc3C2(C)C)cc1, the Potency is reported as inconclusive: 29.1 µM [activator, partial curve, poor fit]. In the case of O=C(COC(=O)c1ccco1)Nc1ccc(N2CCOCC2)cc1, the Potency is reported as “inactive”. For O=C(CSc1nnc(-c2ccc(F)cc2)c2ccccc12)NCC1CCCO1 (stereo not given), the Potency was inconclusive: 1.84 µM [falling, partial curve, poor fit]. In the case of Cc1ccc(-c2nnc(SCC(=O)N3CCCC3)o2)cc1, the Potency is reported as inconclusive: 0.731 µM [activator, full curve, poor fit]. With CCC(CC)COC(=O)C1=C(C)NC(=O)NC1c1cccc([N+](=O)[O-])c1 (stereo not given) the Potency was inconclusive: 20.6 µM [falling, single point]. In the case of O=C(Nc1nc(-c2ccccc2)cs1)c1ccc2c(=O)n3c(nc2c1)CCCCC3, the Potency is reported as active: 5.8 µM. For CC1CCN(CC(=O)Nc2ccc(S(=O)(=O)N3CCCC(C)C3)cc2)CC1 (stereo not given), the Potency was inconclusive: 29.1 µM [falling, single point]. In the case of CCOC(=O)C1CCCN(Cc2cc(=O)oc3cc(C)ccc23)C1 (stereo not given), the Potency is reported as inconclusive: 5.8 µM [activator, full curve]. For Cc1ccc(N2CCN(S(=O)(=O)c3ccc4oc(=O)ccc4c3)CC2)c(C)c1, the Potency was inconclusive: 29.1 µM [falling, single point]. In the case of Fc1cccc(/C=C2\CCCC3=C2NC(=S)NC3c2cccc(F)c2)c1 (stereo not given), the Potency is reported as inconclusive: 23.1 µM [falling, single point]. With Cc1ccc(-n2ncc3c(SCc4ccccn4)ncnc32)c(C)c1 the Potency was inconclusive: 2.91 µM [activator, full curve]. For CC(Oc1ccc2c(-c3ccccc3)cc(=O)oc2c1)C(=O)NCC1CCC(C(=O)O)CC1 (stereo not given), the Potency was inconclusive: 29.1 µM [falling, partial curve, poor fit]. For CN(C)S(=O)(=O)c1cccc(-c2csc(=Nc3ccccc3)n2CCCN2CCOCC2)c1, the Potency was inconclusive: 16.4 µM [falling, partial curve, poor fit]. With Cc1ccc(NC(=O)C2CCN(S(=O)(=O)c3c(C)noc3C)CC2)cc1 the Potency was “inactive”. With CCc1cc(C(=O)c2ccccc2)c(N)s1 the Potency was “inactive”. For O=C(c1cc(Cl)cc(Cl)c1)N1CCN(c2cc(C(F)(F)F)nc3ccccc23)CC1, the Potency was inconclusive: 16.4 µM [falling, partial curve, poor fit]. With COc1ccc(S(=O)(=O)NCC2CCCN(C(=O)CC3CCCC3)C2)cc1 (stereo not given) the Potency was inconclusive: 4.61 µM [falling, full curve, poor fit]. For CCCCCC(=O)N1CCN(S(=O)(=O)c2ccc3c(c2)OCCCO3)CC1, the Potency was inconclusive: 6.51 µM [falling, partial curve, poor fit]. In the case of COc1cc(-c2nc(-c3ccc4c(c3)-c3ccccc3S4(=O)=O)c(-c3ccccc3)[nH]2)cc(OC)c1O, the Potency is reported as inconclusive: 18.4 µM [falling, single point]. In the case of COc1cccc(NC(=O)c2ccc(NC(C)=O)cc2)c1, the Potency is reported as inconclusive: 20.6 µM [activator, single point]. In the case of NS(=O)(=O)c1cccc(NC(=O)COC(=O)c2cc([N+](=O)[O-])ccc2N2CCCC2)c1, the Potency is reported as inconclusive: 29.1 µM [falling, single point]. In the case of COCCCNC(=O)NC(CCC(C)C)c1c(-n2cccc2)sc2c1CCN(C)C2 (stereo not given), the Potency is reported as “inactive”. For COc1ccccc1NS(=O)(=O)c1cc(-c2cc(C)no2)ccc1OC, the Potency was inconclusive: 14.6 µM [falling, partial curve]. In the case of Cc1ccc(-n2ncc3c(NCc4ccco4)ncnc32)cc1C, the Potency is reported as inconclusive: 18.4 µM [activator, single point]. In the case of CC(C)(C)C(=O)Nc1ccc(C(=O)N/N=C/c2ccccc2OC(=O)c2ccc(Cl)cc2Cl)cc1, the Potency is reported as active: 13 µM. In the case of COc1cc(C(=O)N/N=C/c2ccccn2)cc(OC)c1OC, the Potency is reported as inconclusive: 8.2 µM [activator, partial curve, poor fit].

— PubChem BioAssay AID504444 (National Center for Advancing Translational Sciences (NCATS), 2011)
Potency is the fitted concentration of half-maximal effect.
